# In PMC5762521:
# Amino acid sequences for entries named in this document (tags omitted).
# UniProt Q00613: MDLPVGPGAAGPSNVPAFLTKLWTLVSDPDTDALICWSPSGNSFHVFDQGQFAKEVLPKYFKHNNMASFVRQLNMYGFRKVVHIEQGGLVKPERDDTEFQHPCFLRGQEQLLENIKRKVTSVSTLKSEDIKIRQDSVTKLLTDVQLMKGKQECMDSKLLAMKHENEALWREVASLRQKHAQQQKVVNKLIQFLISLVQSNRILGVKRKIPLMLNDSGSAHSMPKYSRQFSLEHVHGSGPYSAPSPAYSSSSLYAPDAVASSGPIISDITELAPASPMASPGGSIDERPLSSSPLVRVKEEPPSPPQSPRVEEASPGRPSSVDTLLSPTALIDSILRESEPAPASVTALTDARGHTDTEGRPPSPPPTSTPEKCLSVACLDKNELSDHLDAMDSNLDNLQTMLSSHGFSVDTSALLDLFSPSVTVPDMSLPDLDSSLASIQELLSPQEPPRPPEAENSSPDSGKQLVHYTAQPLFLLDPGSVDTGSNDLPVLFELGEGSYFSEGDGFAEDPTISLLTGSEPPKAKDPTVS
# Results are given in words; binding and its absence hold for the method and conditions named. In cells and extracts the contact can be indirect. These calls come from enrichment with a bait or labelling near it, and not all partners need be listed.
# B1: Apolipoprotein L1 (ApoL1) (protein, UniProt O14791 28-398)
# chain: EEAGARVQQNVPSGTDTGDPQSKPLGDWAAGTMDPESSIFIEDAIKYFKEKVSTQNLLLLLTDNEAWNGFVAAAELPRNEADELRKALDNLARQMIMKDKNWHDKGQQYRNWFLKEFPRLKSELEDNIRRLRALADGVQKVHKGTTIANVVSGSLSISSGILTLVGMGLAPFTEGGSLVLLEPGMELGITAALTGITSSTMDYGKKWWTQAQAHDLVIKSLDKLKEVREFLGENISNFLSLAGNTYQLTRGIGKDIRALRRARANLQSVPHASASRPRVTEPISAESGEQVERVNEPSILEMSRGVKLTDVAPVSFFLVLDVVYLVYESKHLHEGAKSETAEELKKVAQELEEKLNILNNNYKILQADQEL
# Biological target: Heat shock transcription factor-1 (HSF-1) (human (endogenous in HCT-116)) (UniProt Q00613)
# Assay: affinity purification with mass spectrometry; HSF-1 immunoprecipitates from HCT-116 control cells and cells treated with 50 uM vitexin; 10% SDS-PAGE, silver stain; bands excised, trypsin digest, MALDI-TOF peptide mass fingerprinting (MASCOT)
binder,measurement,value
B1,binding,binds
